PubChem BioAssay AID504784 | Drosophila RNAi Screening Center, 2011

- Test: 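Fly genes whose silencing alters how much lipid cells keep in droplets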 (primary screen)
- Cell system: Drosophila Kc167 embryonic cells
- Reagents: long dsRNA against Drosophila genes, about 250 ng dsRNA per well
- Time to read-out: 4 days
- Treatment: cells fed 400 µM oleic acid bound to BSA
- Measured: 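Cells imaged and segmented; ratio of lipid droplet area to nuclear area, log-transformed, then normalised as a B-score over the screen; higher means more stored lipid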
- Scale: droplet/nuclear area B-score: higher = more stored lipid (overstorage)
The screen tested about 17,000 reagents; below is an unselected part of those with a known target gene and a result. 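Each column is one replicate's B-score; the combined score over replicates was not deposited, so single values may mislead.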 Further read-outs or replicates are left out here.

What is on record for TrpRS-m (Tryptophanyl-tRNA synthetase, mitochondrial) [DRSC10848]?
droplet/nuclear area B-score, replicate 1: 0.16

Which result is listed for CG17567 (retired record) [DRSC02627]?
droplet/nuclear area B-score, replicate 1: -1.07

Which result is listed for CG17567 (retired record) [DRSC22537]?
droplet/nuclear area B-score, replicate 1: 1.2

With CG10298 [DRSC12522], what was measured?
droplet/nuclear area B-score, replicate 1: 2.12

What did the screen give for hth (homothorax) [DRSC16967]?
droplet/nuclear area B-score, replicate 1: -0.535

For Mur18B (Mucin related 18B) [DRSC20063], what was measured?
droplet/nuclear area B-score, replicate 1: 0.00383

For Cpr49Ac (Cuticular protein 49Ac) [DRSC07199], how do the results read?
droplet/nuclear area B-score, replicate 1: -1.02

With CG7409 [DRSC10842], what was measured?
droplet/nuclear area B-score, replicate 1: -1.91

How did the screen score CG8929 [DRSC07298]?
droplet/nuclear area B-score, replicate 1: -0.258

For CG8929 [DRSC22847], what was measured?
droplet/nuclear area B-score, replicate 1: -1.8

What did the screen give for CG14020 [DRSC02350]?
droplet/nuclear area B-score, replicate 1: 0.025

What is on record for Rab27 [DRSC18567]?
droplet/nuclear area B-score, replicate 1: 0.134

Which result is listed for Cpr64Ab (Cuticular protein 64Ab) [DRSC08461]?
droplet/nuclear area B-score, replicate 1: -0.681

Which result is listed for daed (daedalus) [DRSC00299]?
droplet/nuclear area B-score, replicate 1: -2.67

For Ac76E (Adenylyl cyclase 76E) [DRSC09642], what does the deposit list?
droplet/nuclear area B-score, replicate 1: 3.7

For Ac76E (Adenylyl cyclase 76E) [DRSC09662], how do the results read?
droplet/nuclear area B-score, replicate 1: 0.00181

How did the screen score CG13870 [DRSC06429]?
droplet/nuclear area B-score, replicate 1: 0.104

For CG4835 [DRSC10452], how do the results read?
droplet/nuclear area B-score, replicate 1: 1.96

With Tmtc3 (Transmembrane O-mannosyltransferase targeting cadherins 3) [DRSC04444], what does the deposit list?
droplet/nuclear area B-score, replicate 1: 0.732

For Rad51D (Rad51 recombinase D) [DRSC06840], what does the deposit list?
droplet/nuclear area B-score, replicate 1: -0.42

With CG15208 [DRSC19654], what was measured?
droplet/nuclear area B-score, replicate 1: 1.97

For CG6280 [DRSC06972], what was measured?
droplet/nuclear area B-score, replicate 1: 0.723

How did the screen score MCPH1 (Microcephalin) [DRSC06309]?
droplet/nuclear area B-score, replicate 1: 1.11

With MCPH1 (Microcephalin) [DRSC07308], how do the results read?
droplet/nuclear area B-score, replicate 1: 0.0315

With MCPH1 (Microcephalin) [DRSC22536], how do the results read?
droplet/nuclear area B-score, replicate 1: -1

With CG7239 [DRSC03038], what was measured?
droplet/nuclear area B-score, replicate 1: -0.0217

What is on record for CG7239 [DRSC23113]?
droplet/nuclear area B-score, replicate 1: 0.995

For Nadsyn (NAD synthetase) [DRSC20222], how do the results read?
droplet/nuclear area B-score, replicate 1: 1.45

With UQCR-14L (Ubiquinol-cytochrome c reductase 14 kDa subunit-like) [DRSC15288], how do the results read?
droplet/nuclear area B-score, replicate 1: -0.105

What is on record for UQCR-14L (Ubiquinol-cytochrome c reductase 14 kDa subunit-like) [DRSC22425]?
droplet/nuclear area B-score, replicate 1: -0.884

What did the screen give for dpr19 (defective proboscis extension response 19) [DRSC02237]?
droplet/nuclear area B-score, replicate 1: 0.927

For CG34398 [DRSC01052], what was measured?
droplet/nuclear area B-score, replicate 1: -0.365

What is on record for CG34398 [DRSC02510]?
droplet/nuclear area B-score, replicate 1: -0.15

What did the screen give for CG34398 [DRSC02511]?
droplet/nuclear area B-score, replicate 1: -0.509

With CG34398 [DRSC03228], what was measured?
droplet/nuclear area B-score, replicate 1: -1.16

With CG34398 [DRSC23293], what was measured?
droplet/nuclear area B-score, replicate 1: 0.284

Which result is listed for CG6479 [DRSC10647]?
droplet/nuclear area B-score, replicate 1: -0.176

Which result is listed for CG8170 [DRSC07087]?
droplet/nuclear area B-score, replicate 1: 0.837

How did the screen score CG30271 [DRSC04170]?
droplet/nuclear area B-score, replicate 1: 3.44

With CG33969 [DRSC11777], what was measured?
droplet/nuclear area B-score, replicate 1: 0.488

2 entries already listed, arranged by “droplet/nuclear area B-score, replicate 1”, lowest first:
Cpr49Ac (Cuticular protein 49Ac) [DRSC07199] → droplet/nuclear area B-score, replicate 1: -1.02
Mur18B (Mucin related 18B) [DRSC20063] → droplet/nuclear area B-score, replicate 1: 0.00383
